The supplement of paper PMC7666118
The list shows a part of the results.

Protein sequences, listed by entry. Tags and fused reporters are not part of them. Lines headed by an entry give the natural chain unless they say otherwise; changes in a name come on top.
UniProt Q7L211: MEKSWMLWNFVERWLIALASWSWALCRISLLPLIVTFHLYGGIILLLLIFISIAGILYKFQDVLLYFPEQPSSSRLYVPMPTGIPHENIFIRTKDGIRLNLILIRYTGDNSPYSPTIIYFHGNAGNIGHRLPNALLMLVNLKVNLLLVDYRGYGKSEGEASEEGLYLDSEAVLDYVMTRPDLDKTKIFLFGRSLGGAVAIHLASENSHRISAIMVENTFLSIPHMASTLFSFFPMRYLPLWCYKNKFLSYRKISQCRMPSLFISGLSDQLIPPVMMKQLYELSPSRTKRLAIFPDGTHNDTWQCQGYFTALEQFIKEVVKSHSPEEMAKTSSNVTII
UniProt Q9NZ32, whole entry: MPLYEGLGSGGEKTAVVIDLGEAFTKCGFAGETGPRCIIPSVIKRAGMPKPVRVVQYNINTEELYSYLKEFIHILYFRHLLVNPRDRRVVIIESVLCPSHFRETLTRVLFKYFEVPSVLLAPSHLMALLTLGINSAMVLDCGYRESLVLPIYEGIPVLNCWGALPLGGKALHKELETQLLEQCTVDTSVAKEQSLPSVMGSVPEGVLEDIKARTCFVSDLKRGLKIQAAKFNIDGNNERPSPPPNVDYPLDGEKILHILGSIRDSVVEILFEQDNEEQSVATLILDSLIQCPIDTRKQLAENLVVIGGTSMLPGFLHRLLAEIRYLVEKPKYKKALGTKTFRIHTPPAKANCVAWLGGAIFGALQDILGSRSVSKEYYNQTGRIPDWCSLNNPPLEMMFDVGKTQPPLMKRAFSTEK
UniProt Q9P0K1: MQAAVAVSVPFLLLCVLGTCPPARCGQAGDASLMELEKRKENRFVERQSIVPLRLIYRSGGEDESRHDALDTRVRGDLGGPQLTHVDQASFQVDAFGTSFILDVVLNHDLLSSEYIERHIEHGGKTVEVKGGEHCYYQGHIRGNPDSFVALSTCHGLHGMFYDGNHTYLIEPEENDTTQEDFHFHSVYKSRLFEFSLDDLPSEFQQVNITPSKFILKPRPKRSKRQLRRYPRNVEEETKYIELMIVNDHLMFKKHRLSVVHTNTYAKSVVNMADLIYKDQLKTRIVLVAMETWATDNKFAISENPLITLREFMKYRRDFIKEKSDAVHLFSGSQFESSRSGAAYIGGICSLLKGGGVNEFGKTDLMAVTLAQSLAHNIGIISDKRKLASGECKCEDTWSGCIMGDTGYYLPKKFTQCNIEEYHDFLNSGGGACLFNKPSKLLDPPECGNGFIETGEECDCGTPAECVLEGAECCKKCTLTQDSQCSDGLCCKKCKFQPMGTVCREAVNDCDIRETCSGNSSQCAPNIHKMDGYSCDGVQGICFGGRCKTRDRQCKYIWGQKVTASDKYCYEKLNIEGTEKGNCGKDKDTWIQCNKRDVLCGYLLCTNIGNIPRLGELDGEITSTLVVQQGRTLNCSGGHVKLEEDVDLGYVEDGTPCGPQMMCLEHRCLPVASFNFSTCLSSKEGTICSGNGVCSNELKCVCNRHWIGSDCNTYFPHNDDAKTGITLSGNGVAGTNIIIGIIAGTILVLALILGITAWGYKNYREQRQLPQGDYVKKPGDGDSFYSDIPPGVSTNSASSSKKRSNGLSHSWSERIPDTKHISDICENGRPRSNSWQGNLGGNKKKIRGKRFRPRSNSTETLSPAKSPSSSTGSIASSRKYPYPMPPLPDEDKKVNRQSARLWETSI
UniProt Q15057: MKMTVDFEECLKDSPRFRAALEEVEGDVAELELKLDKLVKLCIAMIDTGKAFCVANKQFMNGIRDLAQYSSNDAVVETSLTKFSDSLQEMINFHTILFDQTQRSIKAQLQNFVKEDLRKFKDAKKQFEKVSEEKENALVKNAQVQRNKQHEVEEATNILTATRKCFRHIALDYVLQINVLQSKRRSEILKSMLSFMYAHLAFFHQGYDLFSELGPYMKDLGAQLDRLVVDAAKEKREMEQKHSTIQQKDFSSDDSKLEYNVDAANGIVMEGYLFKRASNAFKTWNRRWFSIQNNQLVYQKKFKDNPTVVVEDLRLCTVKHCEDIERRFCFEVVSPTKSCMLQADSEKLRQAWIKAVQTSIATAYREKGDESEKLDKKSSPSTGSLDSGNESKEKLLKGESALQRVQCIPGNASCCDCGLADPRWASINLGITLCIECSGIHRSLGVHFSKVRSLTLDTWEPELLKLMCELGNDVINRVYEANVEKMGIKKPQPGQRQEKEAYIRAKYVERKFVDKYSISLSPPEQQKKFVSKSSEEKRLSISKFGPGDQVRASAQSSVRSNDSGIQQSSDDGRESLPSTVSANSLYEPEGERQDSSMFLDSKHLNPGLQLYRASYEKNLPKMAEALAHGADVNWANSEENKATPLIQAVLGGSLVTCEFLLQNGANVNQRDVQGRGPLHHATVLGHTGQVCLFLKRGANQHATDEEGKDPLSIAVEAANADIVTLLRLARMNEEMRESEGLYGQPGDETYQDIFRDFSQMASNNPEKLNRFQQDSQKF
UniProt Q9NRN7: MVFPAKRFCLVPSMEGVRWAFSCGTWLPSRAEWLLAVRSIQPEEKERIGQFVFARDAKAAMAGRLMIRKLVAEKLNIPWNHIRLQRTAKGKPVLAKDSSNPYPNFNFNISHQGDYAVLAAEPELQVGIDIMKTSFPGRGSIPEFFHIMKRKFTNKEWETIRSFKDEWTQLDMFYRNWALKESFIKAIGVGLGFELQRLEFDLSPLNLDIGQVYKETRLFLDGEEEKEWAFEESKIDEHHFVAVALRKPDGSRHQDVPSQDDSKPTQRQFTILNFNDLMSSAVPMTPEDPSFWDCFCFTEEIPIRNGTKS
UniProt P49748: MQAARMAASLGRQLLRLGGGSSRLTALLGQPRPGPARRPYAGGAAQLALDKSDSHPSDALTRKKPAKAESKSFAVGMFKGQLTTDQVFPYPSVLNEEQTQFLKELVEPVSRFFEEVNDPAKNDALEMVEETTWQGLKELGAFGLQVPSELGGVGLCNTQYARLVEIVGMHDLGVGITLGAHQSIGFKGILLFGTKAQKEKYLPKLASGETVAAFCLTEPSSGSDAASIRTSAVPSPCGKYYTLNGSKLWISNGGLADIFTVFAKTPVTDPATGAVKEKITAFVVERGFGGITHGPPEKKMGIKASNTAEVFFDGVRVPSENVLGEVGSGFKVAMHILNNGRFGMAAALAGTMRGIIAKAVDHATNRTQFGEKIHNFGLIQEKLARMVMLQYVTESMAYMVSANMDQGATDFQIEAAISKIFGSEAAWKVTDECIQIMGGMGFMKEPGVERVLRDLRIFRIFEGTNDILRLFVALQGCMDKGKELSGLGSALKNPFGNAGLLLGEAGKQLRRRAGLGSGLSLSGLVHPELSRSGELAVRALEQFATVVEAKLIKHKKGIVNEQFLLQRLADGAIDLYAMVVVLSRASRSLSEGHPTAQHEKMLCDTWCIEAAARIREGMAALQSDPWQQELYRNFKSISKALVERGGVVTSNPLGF
UniProt Q9NPH0: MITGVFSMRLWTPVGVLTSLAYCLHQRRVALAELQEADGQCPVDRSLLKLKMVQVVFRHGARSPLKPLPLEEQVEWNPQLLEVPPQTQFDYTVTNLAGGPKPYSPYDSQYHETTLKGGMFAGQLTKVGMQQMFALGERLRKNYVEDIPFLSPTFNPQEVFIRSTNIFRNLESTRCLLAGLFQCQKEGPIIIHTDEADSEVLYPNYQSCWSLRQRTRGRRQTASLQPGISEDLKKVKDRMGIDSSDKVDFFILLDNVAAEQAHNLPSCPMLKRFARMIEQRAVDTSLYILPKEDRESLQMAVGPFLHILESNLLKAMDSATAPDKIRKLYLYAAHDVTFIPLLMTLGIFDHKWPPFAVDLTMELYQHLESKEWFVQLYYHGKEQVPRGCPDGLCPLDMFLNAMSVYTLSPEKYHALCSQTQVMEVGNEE
UniProt Q9NRK6: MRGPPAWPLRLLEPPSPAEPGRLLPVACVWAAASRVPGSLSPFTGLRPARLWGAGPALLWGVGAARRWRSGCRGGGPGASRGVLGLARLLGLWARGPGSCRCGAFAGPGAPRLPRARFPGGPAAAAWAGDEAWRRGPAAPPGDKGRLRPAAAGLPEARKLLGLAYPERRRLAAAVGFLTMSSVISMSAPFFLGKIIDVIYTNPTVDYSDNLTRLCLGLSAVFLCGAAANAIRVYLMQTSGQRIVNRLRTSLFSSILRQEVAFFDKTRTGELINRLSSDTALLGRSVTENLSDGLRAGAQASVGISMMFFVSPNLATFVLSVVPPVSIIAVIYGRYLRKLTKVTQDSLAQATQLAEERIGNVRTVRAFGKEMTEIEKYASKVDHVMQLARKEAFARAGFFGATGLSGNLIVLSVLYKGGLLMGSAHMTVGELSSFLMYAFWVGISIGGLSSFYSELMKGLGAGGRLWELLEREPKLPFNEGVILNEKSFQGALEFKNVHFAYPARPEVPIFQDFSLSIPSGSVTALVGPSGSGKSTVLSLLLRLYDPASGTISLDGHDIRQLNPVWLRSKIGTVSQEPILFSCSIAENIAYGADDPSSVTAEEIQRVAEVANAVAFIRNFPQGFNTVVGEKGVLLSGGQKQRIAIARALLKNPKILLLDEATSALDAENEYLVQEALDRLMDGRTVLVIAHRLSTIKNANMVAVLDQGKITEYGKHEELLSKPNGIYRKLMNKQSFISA
UniProt P35612: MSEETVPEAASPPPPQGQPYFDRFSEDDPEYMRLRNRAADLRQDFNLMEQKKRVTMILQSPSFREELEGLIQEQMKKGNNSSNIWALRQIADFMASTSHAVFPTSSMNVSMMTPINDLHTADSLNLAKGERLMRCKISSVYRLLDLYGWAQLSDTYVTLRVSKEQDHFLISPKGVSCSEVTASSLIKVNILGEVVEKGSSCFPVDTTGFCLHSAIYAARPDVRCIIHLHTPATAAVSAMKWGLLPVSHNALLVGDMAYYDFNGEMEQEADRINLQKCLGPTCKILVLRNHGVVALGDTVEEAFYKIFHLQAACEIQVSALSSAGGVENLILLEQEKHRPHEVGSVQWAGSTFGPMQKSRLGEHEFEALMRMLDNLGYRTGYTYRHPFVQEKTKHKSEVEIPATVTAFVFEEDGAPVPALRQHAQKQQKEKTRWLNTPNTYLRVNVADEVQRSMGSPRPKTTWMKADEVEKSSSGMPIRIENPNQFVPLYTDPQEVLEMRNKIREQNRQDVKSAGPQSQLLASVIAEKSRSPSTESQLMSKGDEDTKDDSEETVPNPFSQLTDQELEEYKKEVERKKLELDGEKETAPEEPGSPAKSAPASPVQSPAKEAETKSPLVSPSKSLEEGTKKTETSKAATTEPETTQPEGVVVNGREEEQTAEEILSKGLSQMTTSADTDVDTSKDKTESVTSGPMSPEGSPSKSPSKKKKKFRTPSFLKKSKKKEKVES
UniProt Q6PIU2: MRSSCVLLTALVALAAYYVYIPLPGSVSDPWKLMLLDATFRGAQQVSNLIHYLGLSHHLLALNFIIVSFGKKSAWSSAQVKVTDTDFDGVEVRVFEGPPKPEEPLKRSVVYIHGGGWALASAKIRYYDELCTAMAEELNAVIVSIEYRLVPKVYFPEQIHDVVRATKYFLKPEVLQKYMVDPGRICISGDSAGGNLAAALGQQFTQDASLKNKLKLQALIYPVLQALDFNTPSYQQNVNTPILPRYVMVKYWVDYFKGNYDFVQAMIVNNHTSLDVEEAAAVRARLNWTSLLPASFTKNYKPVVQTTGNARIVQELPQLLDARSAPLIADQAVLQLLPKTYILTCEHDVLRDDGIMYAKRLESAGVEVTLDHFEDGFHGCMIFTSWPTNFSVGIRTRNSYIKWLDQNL
UniProt Q9Y305: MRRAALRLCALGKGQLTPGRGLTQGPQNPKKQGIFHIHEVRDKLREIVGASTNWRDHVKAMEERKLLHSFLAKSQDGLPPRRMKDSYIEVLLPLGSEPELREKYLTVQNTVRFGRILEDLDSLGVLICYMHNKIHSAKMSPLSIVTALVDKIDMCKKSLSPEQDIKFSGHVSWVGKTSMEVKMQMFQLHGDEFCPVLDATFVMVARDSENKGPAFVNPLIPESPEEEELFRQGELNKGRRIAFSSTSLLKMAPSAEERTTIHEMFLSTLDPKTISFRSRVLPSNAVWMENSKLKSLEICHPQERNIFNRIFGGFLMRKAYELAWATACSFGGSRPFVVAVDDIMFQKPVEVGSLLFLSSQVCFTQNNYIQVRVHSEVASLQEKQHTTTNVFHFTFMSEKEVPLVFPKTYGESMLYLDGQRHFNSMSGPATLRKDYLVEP
UniProt Q03154: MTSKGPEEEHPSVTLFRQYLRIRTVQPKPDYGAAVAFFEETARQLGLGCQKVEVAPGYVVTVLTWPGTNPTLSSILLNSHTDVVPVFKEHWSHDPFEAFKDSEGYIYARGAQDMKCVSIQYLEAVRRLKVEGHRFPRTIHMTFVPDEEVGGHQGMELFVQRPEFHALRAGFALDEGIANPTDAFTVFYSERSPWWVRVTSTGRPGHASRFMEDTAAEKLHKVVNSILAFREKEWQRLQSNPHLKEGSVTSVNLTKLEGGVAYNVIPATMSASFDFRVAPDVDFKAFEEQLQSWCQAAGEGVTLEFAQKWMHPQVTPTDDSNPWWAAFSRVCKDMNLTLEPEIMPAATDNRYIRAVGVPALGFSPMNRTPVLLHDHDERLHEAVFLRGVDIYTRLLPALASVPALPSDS

compound: COc1ccc(Cn2ccc3cc(C)c(C(=O)NO)cc32)cc1; experiment: dose-dependent thermal stabilisation call (2D-TPP, DLPTP, 10% FDR) (binary (1 = stabilised)); higher = stabilised by the compound; details: system: HL-60 intact cells; concentration range 0.04-10 µM
Protocol: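 2D thermal proteome profiling in intact HL-60 cells treated with BRD-3811 (0, 0.04, 0.29, 2, 10 uM) for 90 min at 37 C, then heated 3 min at one of 12 temperatures (42-63.9 C). Soluble protein was quantified by TMT10 MS. The value is the DLPTP call of the paper: dose-dependent thermal stabilisation over all temperatures at 10% FDR (F-test of a dose-response against a flat model); one experiment, one call per tested protein.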

Row | Target | dose-dependent thermal stabilisation call
1 | ACTR8 (UniProt Q9H981) | inactive: 0
2 | ABHD13 (UniProt Q7L211) | inactive: 0
3 | ACADM (UniProt P11310) | inactive: 0
4 | ABCA2 (UniProt Q9BZC7) | inactive: 0
5 | ACTR10 (UniProt Q9NZ32) | inactive: 0
6 | ACTR2 (UniProt P61160) | inactive: 0
7 | ABCB8 (UniProt Q9NUT2) | inactive: 0
8 | AARSD1 (UniProt Q9BTE6) | inactive: 0
9 | ACP2 (UniProt P11117) | inactive: 0
10 | ADPRHL2 (UniProt Q9NX46) | inactive: 0
11 | ADAM22 (UniProt Q9P0K1) | inactive: 0
12 | ACSF3 (UniProt Q4G176) | inactive: 0
13 | ACTR3 (UniProt P61158) | inactive: 0
14 | CEBPZOS HUMAN (UniProt A8MTT3) | inactive: 0
15 | AAMP (UniProt Q13685) | inactive: 0
16 | ADK (UniProt P55263) | inactive: 0
17 | ACSL5 (UniProt Q9ULC5) | inactive: 0
18 | ACAP2 (UniProt Q15057) | inactive: 0
19 | AASDHPPT (UniProt Q9NRN7) | inactive: 0
20 | ACAD8 (UniProt Q9UKU7) | inactive: 0

Pulled one by one from the list above (3):
Row | Target | dose-dependent thermal stabilisation call
13 | ACTR3 (UniProt P61158) | inactive: 0
10 | ADPRHL2 (UniProt Q9NX46) | inactive: 0
7 | ABCB8 (UniProt Q9NUT2) | inactive: 0

The listing continues.

Row | Target | dose-dependent thermal stabilisation call
21 | AASDH (UniProt Q4L235) | inactive: 0
22 | ACOX3 (UniProt O15254) | active: 1
23 | ACTR1A (UniProt P61163) | inactive: 0
24 | ACADVL (UniProt P49748) | inactive: 0
25 | ACSS2 (UniProt Q9NR19) | inactive: 0
26 | ACYP2 (UniProt P14621) | inactive: 0
27 | ACP6 (UniProt Q9NPH0) | inactive: 0
28 | ACTN4 (UniProt O43707) | inactive: 0
29 | AAAS (UniProt Q9NRG9) | inactive: 0
30 | ADSL (UniProt P30566) | active: 1
31 | ABCB10 (UniProt Q9NRK6) | inactive: 0
32 | ACTR6 (UniProt Q9GZN1) | inactive: 0
33 | ACSL1 (UniProt P33121) | inactive: 0
34 | ADD2 (UniProt P35612) | inactive: 0
35 | ACTR3B (UniProt Q9P1U1) | inactive: 0
36 | AADACL1 (UniProt Q6PIU2) | inactive: 0
37 | ACOT9 (UniProt Q9Y305) | inactive: 0
38 | ACY1 (UniProt Q03154) | inactive: 0
39 | ADPGK (UniProt Q9BRR6) | inactive: 0
40 | ACSM3 (UniProt Q53FZ2) | inactive: 0
